# Record: PubChem BioAssay AID1259405 (NCATS, 2018)
# Assay: 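Mouse-designed siRNAs used to find CHO productivity engineering targets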 (primary screen)
# Cells: Chinese hamster CHO-K1 ovary cells with stable secreted eGFP expression
# Knock-down reagent: single siRNA against mouse genes, 0.8 pmol siRNA per well (2 µl of 400 nM stock)
# Timing: 3 days
# Detection: 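Percent of the per-plate non-targeting control median for intracellular GFP per well by laser scanning cytometry and for cell viability by ATP luminescence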
# Reading the numbers: GFP, % of control: higher = more GFP per well, higher productivity; viability (ATP), % of control: higher = more viable cells (more ATP)
# Hit rule: 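Called active when intracellular GFP, relative to negative control, is at or above 120%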
# In all, the deposit lists about 50,000 reagents; shown is a random part of them. About 4,000 of them (8%) count as active. 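Mouse siRNA library applied to hamster cells; one well for each siRNA.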 Entries without a mark were called inactive. Reagents against one gene are numbered here.
gene knocked down,reagent no.,"GFP, % of control","viability (ATP), % of control"
"Ugt1a1 (UDP glucuronosyltransferase 1 family, polypeptide A1)",1,62.9,72.5
"Ugt1a1 (UDP glucuronosyltransferase 1 family, polypeptide A1)",2,56.5,79.5
"Ugt1a1 (UDP glucuronosyltransferase 1 family, polypeptide A1)",3,69.5,70.4
Dync2h1 (dynein cytoplasmic 2 heavy chain 1),1,97.6,92.7
Dync2h1 (dynein cytoplasmic 2 heavy chain 1),2,65.8,78.3
Nfyc (nuclear transcription factor-Y gamma),1,34.1,43.1
Nfyc (nuclear transcription factor-Y gamma),2,80.4,75.2
Nfyc (nuclear transcription factor-Y gamma),3,136 (active),88.6
Gpr17 (G protein-coupled receptor 17),1,23.7,37.8
Gpr17 (G protein-coupled receptor 17),2,90.7,90.9
Gpr17 (G protein-coupled receptor 17),3,103,47.7
Rfxap (regulatory factor X-associated protein),1,62.9,72.9
Rfxap (regulatory factor X-associated protein),2,60.4,80.5
Rfxap (regulatory factor X-associated protein),3,84.2,102
Nup42 (nucleoporin 42),1,51.8,49
Nup42 (nucleoporin 42),2,105,129
Nup42 (nucleoporin 42),3,96.7,97
"Atp2b1 (ATPase, Ca++ transporting, plasma membrane 1)",1,79.9,77.4
"Atp2b1 (ATPase, Ca++ transporting, plasma membrane 1)",2,110,99.8
"Atp2b1 (ATPase, Ca++ transporting, plasma membrane 1)",3,98.7,99.1
Trappc2l (trafficking protein particle complex 2L),1,60.9,73.7
Trappc2l (trafficking protein particle complex 2L),2,71.8,85.7
Trappc2l (trafficking protein particle complex 2L),3,67.5,79.4
Srd5a3 (steroid 5 alpha-reductase 3),1,99.5,95.8
Srd5a3 (steroid 5 alpha-reductase 3),2,90.1,60.4
Pramel31 (PRAME like 31),1,66.3,66.5
Pramel31 (PRAME like 31),2,135 (active),83.4
Pramel31 (PRAME like 31),3,77.2,72.2
Cox14 (cytochrome c oxidase assembly protein 14),1,171 (active),89
Cox14 (cytochrome c oxidase assembly protein 14),2,136 (active),119
Cox14 (cytochrome c oxidase assembly protein 14),3,71.9,76.7
Emg1 (EMG1 N1-specific pseudouridine methyltransferase),1,62.3,59.3
Emg1 (EMG1 N1-specific pseudouridine methyltransferase),2,98.4,105
Emg1 (EMG1 N1-specific pseudouridine methyltransferase),3,59.2,42.6
Cenpn (centromere protein N),1,67.1,55.4
Cenpn (centromere protein N),2,59.3,52.8
Cenpn (centromere protein N),3,23.1,22.5
Golga2 (golgin A2),1,64.4,63.1
Golga2 (golgin A2),2,76.8,84.7
Mid1ip1,1,54.5,59.8
Mid1ip1,2,41.8,50.5
Mid1ip1,3,95.8,75.3
"Gtf3c3 (general transcription factor IIIC, polypeptide 3)",1,60.3,75.7
"Gtf3c3 (general transcription factor IIIC, polypeptide 3)",2,121 (active),81.7
Pacsin2 (protein kinase C and casein kinase substrate in neurons 2),1,82.1,112
Pacsin2 (protein kinase C and casein kinase substrate in neurons 2),2,68.2,57.7
"Ppp2r5a (protein phosphatase 2, regulatory subunit B', alpha)",1,63.6,94.9
"Ppp2r5a (protein phosphatase 2, regulatory subunit B', alpha)",2,34.5,32.3
"Ppp2r5a (protein phosphatase 2, regulatory subunit B', alpha)",3,86.9,106
Prpf6 (pre-mRNA splicing factor 6),1,70.5,68.6
Prpf6 (pre-mRNA splicing factor 6),2,85.2,67.8
Prpf6 (pre-mRNA splicing factor 6),3,92.2,76.1
Kcns3,1,103,89.1
Kcns3,2,65.3,49.8
Or11g7 (olfactory receptor family 11 subfamily G member 7),1,123 (active),96
Or11g7 (olfactory receptor family 11 subfamily G member 7),2,87.5,97
Or11g7 (olfactory receptor family 11 subfamily G member 7),3,57.2,51.6
Gabra2 (gamma-aminobutyric acid type A receptor subunit alpha 2),1,81.3,98.4
Gabra2 (gamma-aminobutyric acid type A receptor subunit alpha 2),2,56.4,48.8
Gabra2 (gamma-aminobutyric acid type A receptor subunit alpha 2),3,50.9,53.1
9630041A04Rik (RIKEN cDNA 9630041A04 gene),1,120 (active),69.4
9630041A04Rik (RIKEN cDNA 9630041A04 gene),2,103,78
9630041A04Rik (RIKEN cDNA 9630041A04 gene),3,94.6,82.7
Ptrh1 (peptidyl-tRNA hydrolase 1 homolog),1,54,14.9
Ptrh1 (peptidyl-tRNA hydrolase 1 homolog),2,73.3,102
Ptrh1 (peptidyl-tRNA hydrolase 1 homolog),3,53.2,66.4
"Plcb2 (phospholipase C, beta 2)",1,70,63.8
"Plcb2 (phospholipase C, beta 2)",2,132 (active),99.4
"Plcb2 (phospholipase C, beta 2)",3,101,62.2
Ulk4 (unc-51-like kinase 4),1,61.1,84.1
Ulk4 (unc-51-like kinase 4),2,35.6,31.9
Ulk4 (unc-51-like kinase 4),3,71.5,101
4930515G01Rik (RIKEN cDNA 4930515G01 gene),1,92.8,71.6
4930515G01Rik (RIKEN cDNA 4930515G01 gene),2,91.4,73.8
4930515G01Rik (RIKEN cDNA 4930515G01 gene),3,62.6,64.6
Usp25 (ubiquitin specific peptidase 25),1,79.4,69.6
Usp25 (ubiquitin specific peptidase 25),2,89.4,93
Usp25 (ubiquitin specific peptidase 25),3,51.3,60.2
Tmem183a (transmembrane protein 183A),1,73.4,92.1
Tmem183a (transmembrane protein 183A),2,78.5,85.9
Tmem183a (transmembrane protein 183A),3,36.1,49.9
Plec (plectin),1,80.8,31.3
Plec (plectin),2,49.6,58.1
Plec (plectin),3,62.8,42.3

In a second layout: entries from further up
| gene knocked down | reagent no. | GFP, % of control | viability (ATP), % of control |
| --- | --- | --- | --- |
| Gtf3c3 (general transcription factor IIIC, polypeptide 3) | 2 | 121 (active) | 81.7 |
| Pacsin2 (protein kinase C and casein kinase substrate in neurons 2) | 1 | 82.1 | 112 |
| Pacsin2 (protein kinase C and casein kinase substrate in neurons 2) | 2 | 68.2 | 57.7 |
| Ppp2r5a (protein phosphatase 2, regulatory subunit B', alpha) | 1 | 63.6 | 94.9 |
| Ppp2r5a (protein phosphatase 2, regulatory subunit B', alpha) | 2 | 34.5 | 32.3 |
| Ppp2r5a (protein phosphatase 2, regulatory subunit B', alpha) | 3 | 86.9 | 106 |
| Prpf6 (pre-mRNA splicing factor 6) | 1 | 70.5 | 68.6 |
| Prpf6 (pre-mRNA splicing factor 6) | 2 | 85.2 | 67.8 |
| Prpf6 (pre-mRNA splicing factor 6) | 3 | 92.2 | 76.1 |
| Kcns3 | 1 | 103 | 89.1 |
| Kcns3 | 2 | 65.3 | 49.8 |
